Measurements published in ChEMBL document CHEMBL3232750, “Synthesis, structure-activity relationships, and in vitro antibacterial and antifungal activity evaluations of novel pyrazole carboxylic and dicarboxylic acid derivatives” (2014).

Tested on: Candida albicans
Assay: Antifungal activity against Candida albicans at 100 U/disc at 25 degC after 48 hrs by agar well diffusion assay
Type: functional, organism-based

Question: How did the inhibition zone (IZ) turn out when NYSTATIN was run?
Answer: 19 mm
